Assay results published in patent US20110124006A1, “METHOD FOR SCREENING OF THERAPEUTIC AGENT FOR CANCER” (Hismitsu Pharmaceutical Co., Inc., priority 2008, published 2011).
Results are given in words; binding and its absence hold for the method and conditions named. Binding seen in cells or lysates may run through a third protein. Some results given as binding are weak or reduced against the parent protein; the word gives no strength.

By UniProt entry, the sequences of proteins in these tests, tags left out. Where a name states a change or a piece, a line headed by the entry shows the natural chain unless it says otherwise.
UniProt Q6UXK5: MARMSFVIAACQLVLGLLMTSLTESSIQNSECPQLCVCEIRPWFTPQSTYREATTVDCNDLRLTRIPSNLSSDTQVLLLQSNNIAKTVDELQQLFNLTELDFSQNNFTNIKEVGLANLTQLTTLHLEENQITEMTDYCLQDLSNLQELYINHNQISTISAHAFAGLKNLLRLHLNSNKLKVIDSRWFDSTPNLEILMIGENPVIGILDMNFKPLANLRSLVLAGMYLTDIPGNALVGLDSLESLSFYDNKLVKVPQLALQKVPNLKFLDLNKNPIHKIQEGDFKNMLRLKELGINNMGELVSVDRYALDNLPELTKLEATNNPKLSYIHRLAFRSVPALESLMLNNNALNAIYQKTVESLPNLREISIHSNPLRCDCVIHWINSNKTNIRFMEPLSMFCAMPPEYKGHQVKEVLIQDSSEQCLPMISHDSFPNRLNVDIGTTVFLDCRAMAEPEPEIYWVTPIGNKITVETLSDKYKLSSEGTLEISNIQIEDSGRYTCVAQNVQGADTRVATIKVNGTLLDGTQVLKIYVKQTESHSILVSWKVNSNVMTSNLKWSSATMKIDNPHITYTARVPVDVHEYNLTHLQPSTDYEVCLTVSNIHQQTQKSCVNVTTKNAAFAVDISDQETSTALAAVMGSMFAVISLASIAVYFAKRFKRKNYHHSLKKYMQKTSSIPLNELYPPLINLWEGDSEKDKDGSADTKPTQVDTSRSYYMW

Tests used:
[1] = biological target: EGFR (epidermal growth factor receptor) (UniProt P00533); assay: co-immunoprecipitation (IP with anti-EGFR antibody, immunoblot with anti-HA antibody)
[2] = biological target: EGFR (epidermal growth factor receptor) (UniProt P00533); assay: co-immunoprecipitation from 293 cells (DSP cross-linking, IP with anti-EGFR antibody, immunoblot with anti-HA antibody), with or without 10 ng/ml EGF

- binding [1]: binds
- binding [2]: binds
Substance: NLRR1 tagged with a HA tag (from UniProt Q6UXK5 26-716) (receptor)
